Data from publication PMC11434016.
These are yes or no findings as the source states them, for the method shown. Binding seen in cells or lysates may run through a third protein. Some binding calls cover weakened binding; strength is not graded here. For some of these results: Tags and fused reporters may be left off the sequences shown.

The chains behind the UniProt entries cited, without tags or fusion partners.
UniProt P16989: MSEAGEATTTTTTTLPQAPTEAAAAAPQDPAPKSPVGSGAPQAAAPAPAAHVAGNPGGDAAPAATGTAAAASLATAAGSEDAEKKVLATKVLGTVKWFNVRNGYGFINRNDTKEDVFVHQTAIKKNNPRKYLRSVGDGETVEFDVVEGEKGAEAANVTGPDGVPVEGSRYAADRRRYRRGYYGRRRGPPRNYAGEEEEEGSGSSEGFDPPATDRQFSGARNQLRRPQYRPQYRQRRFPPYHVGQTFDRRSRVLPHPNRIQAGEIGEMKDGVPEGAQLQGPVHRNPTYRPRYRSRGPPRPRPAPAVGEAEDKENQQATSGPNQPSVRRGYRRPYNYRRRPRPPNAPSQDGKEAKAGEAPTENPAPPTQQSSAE
UniProt P41091: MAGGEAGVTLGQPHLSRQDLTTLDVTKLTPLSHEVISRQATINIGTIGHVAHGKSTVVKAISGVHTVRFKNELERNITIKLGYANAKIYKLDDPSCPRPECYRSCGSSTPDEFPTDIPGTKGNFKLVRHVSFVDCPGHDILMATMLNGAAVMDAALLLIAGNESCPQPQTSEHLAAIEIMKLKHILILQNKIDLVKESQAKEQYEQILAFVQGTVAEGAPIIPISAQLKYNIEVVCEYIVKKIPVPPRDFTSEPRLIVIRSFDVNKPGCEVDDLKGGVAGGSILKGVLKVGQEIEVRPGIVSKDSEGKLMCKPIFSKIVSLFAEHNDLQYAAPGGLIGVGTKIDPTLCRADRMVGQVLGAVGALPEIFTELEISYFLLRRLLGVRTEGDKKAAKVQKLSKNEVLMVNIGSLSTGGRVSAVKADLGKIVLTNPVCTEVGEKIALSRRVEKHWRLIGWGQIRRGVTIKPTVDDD

Key:
[1] = molecular target: T1, FLAG-YTHDF2 (YTH domain family protein 2) (UniProt Q9Y5A9); experiment: co-IP; Myc-EIF2S3 with Flag-YTHDF2 or HA-YBX3 expressed in PC-3 cells; IP lysis buffer (50 mM Tris-HCl pH 7.4, 1 mM EDTA, 50 mM NaCl, 1% Triton X-100), antibody overnight at 4 °C, Protein A/G beads; also in PROPER knockout cells (interaction decreased) and PROPER knockout cells with ectopic PROPER (rescued) or PROPERmut (not rescued)
T1 sequence: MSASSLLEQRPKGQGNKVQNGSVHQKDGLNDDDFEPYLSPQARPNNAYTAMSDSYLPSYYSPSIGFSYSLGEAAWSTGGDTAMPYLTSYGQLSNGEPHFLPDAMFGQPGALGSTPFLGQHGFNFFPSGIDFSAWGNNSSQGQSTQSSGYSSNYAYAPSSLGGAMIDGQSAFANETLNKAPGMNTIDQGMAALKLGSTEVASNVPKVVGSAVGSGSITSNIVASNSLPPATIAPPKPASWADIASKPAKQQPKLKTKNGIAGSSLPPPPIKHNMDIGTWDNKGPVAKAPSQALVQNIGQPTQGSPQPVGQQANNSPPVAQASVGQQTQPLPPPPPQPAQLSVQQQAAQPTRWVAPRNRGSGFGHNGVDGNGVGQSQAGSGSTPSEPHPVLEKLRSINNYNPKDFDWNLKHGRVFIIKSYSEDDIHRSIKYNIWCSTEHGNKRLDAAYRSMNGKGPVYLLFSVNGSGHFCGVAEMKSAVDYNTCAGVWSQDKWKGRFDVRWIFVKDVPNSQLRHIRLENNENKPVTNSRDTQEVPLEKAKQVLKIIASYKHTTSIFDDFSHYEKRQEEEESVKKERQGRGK

[2] = molecular target: HA-YBX3 (UniProt P16989); experiment: as above
[3] = molecular target: T1, FLAG-YTHDF2 (YTH domain family protein 2); experiment: proximity ligation; PC-3 cells transfected with FLAG-YTHDF2, HA-YBX3 and MYC-EIF2S3, 48 h; two primary antibodies of different species, Duolink PLA probes, confocal microscopy; also after PROPER knockdown (interactions markedly weakened)
[4] = molecular target: HA-YBX3 (UniProt P16989); experiment: as above

Measured: binding

Myc-EIF2S3 (from UniProt P41091 1-472)
binds: all assays above
